# Experimental data as given in PubChem BioAssay AID256 (DTP/NCI, 2004).
# The list shows only some results of the screen, not a fair sample: its compounds were picked by chemical class. Other doses and runs of a compound may be missing. T/C is the treated group as % of the vehicle group. Some doses have a count of surviving animals in place of a T/C: the source holds a T/C of zero for them, seemingly a mark for toxic or unscored doses. Some doses without a T/C left all or most animals alive at the check, yet need not have been tolerated: the source hardly ever lists a survival T/C far under the control, and the zero likely stands for such cases as well. Counts of survivors are from the toxicity check (mostly the fifth day) where no day follows; animals may have died later. Schedules are NCI's codes, taken here to give the interval after Q, in days (D) or hours (H), and the number of doses after X. Some doses were run more than once; the values are given in rising order. For survival time, this PubChem deposit counts one and a half times the control or more as active, and values a quarter to a half above the control carry no call in these data; other NCI protocols may use other cut-offs. Some T/C values carry the count of animals alive at the toxicity check (mostly the fifth day); without a count or a note in brackets, all were alive then. Some T/C values are marked as having no survivor count here; that says nothing about deaths at the dose.
# Tested on: CD2F1 mice, L1210 leukemia ip, survival T/C
# Assay: NCI In Vivo Anticancer Drug Screen. Data for tumor model L1210 Leukemia (intraperitoneal) in CD2F1 (CDF1) mice
# Settings: higher T/C = longer survival
# Summary of the method: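 Vehicle-treated tumor-bearing mice served as controls (C) for compound-treated mice (T). Reported figure is T divided by C.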
compound,measurement,setting,value
CCCCc1ccc(N(CCCl)CCCl)cc1,T/C,"T/C endpoint: mean survival time, dose: 6.25 mg/kg/injection, schedule: Q01DX009 (ip), vehicle: Klucel (hydroxypropylcellulose) (HPC)",103 % of control
same,T/C,"T/C endpoint: mean survival time, dose: 12.5 mg/kg/injection, schedule: Q01DX009 (ip), vehicle: Klucel (hydroxypropylcellulose) (HPC)",105 % of control
same,T/C,"T/C endpoint: mean survival time, dose: 25.0 mg/kg/injection, schedule: Q01DX009 (ip), vehicle: Klucel (hydroxypropylcellulose) (HPC)",92 and 103 % of control
same,T/C,"T/C endpoint: mean survival time, dose: 50.0 mg/kg/injection, schedule: Q01DX009 (ip), vehicle: Klucel (hydroxypropylcellulose) (HPC)",95 and 111 % of control
same,T/C,"T/C endpoint: mean survival time, dose: 100.0 mg/kg/injection, schedule: Q01DX009 (ip), vehicle: Klucel (hydroxypropylcellulose) (HPC)",105 and 108 % of control [5 of 6 alive]
same,T/C,"T/C endpoint: mean survival time, dose: 200.0 mg/kg/injection, schedule: Q01DX009 (ip), vehicle: Klucel (hydroxypropylcellulose) (HPC)",101 and 108 % of control
same,survivor count,"T/C endpoint: mean survival time, dose: 400.0 mg/kg/injection, schedule: Q01DX009 (ip), vehicle: Klucel (hydroxypropylcellulose) (HPC)",3 of 6
O=P1(N(CCCl)CCCl)NCCC(C(F)(F)F)O1 (stereo not drawn),T/C,"T/C endpoint: mean survival time, dose: 7.8 mg/kg/injection, schedule: Q01DX001 (ip), vehicle: Klucel (hydroxypropylcellulose) (HPC)",108 % of control
same,T/C,"T/C endpoint: mean survival time, dose: 7.8 mg/kg/injection, schedule: Q01DX005 (ip), vehicle: Klucel (hydroxypropylcellulose) (HPC)",117 % of control
same,T/C,"T/C endpoint: mean survival time, dose: 15.6 mg/kg/injection, schedule: Q01DX001 (ip), vehicle: Klucel (hydroxypropylcellulose) (HPC)",119 % of control
same,T/C,"T/C endpoint: mean survival time, dose: 15.6 mg/kg/injection, schedule: Q01DX005 (ip), vehicle: Klucel (hydroxypropylcellulose) (HPC)",128 % of control
same,T/C,"T/C endpoint: mean survival time, dose: 31.3 mg/kg/injection, schedule: Q01DX001 (ip), vehicle: Klucel (hydroxypropylcellulose) (HPC)",119 % of control
same,T/C,"T/C endpoint: mean survival time, dose: 31.3 mg/kg/injection, schedule: Q01DX005 (ip), vehicle: Klucel (hydroxypropylcellulose) (HPC)",169 % of control
same,T/C,"T/C endpoint: mean survival time, dose: 62.5 mg/kg/injection, schedule: Q01DX001 (ip), vehicle: Klucel (hydroxypropylcellulose) (HPC)",133 % of control
same,T/C,"T/C endpoint: mean survival time, dose: 62.5 mg/kg/injection, schedule: Q01DX005 (ip), vehicle: Klucel (hydroxypropylcellulose) (HPC)",189 % of control
same,T/C,"T/C endpoint: mean survival time, dose: 125.0 mg/kg/injection, schedule: Q01DX001 (ip), vehicle: Klucel (hydroxypropylcellulose) (HPC)",126 [4 of 6 alive] and 165 % of control
same,survivor count,"T/C endpoint: mean survival time, dose: 125.0 mg/kg/injection, schedule: Q01DX005 (ip), vehicle: Klucel (hydroxypropylcellulose) (HPC)",6 of 6
same,survivor count,"T/C endpoint: mean survival time, dose: 250.0 mg/kg/injection, schedule: Q01DX001 (ip), vehicle: Klucel (hydroxypropylcellulose) (HPC)",3 of 6
same,survivor count,"T/C endpoint: mean survival time, dose: 500.0 mg/kg/injection, schedule: Q01DX001 (ip), vehicle: Klucel (hydroxypropylcellulose) (HPC)",1 of 6
same,survivor count,"T/C endpoint: mean survival time, dose: 1000.0 mg/kg/injection, schedule: Q01DX001 (ip), vehicle: Klucel (hydroxypropylcellulose) (HPC)",0 of 6
CS(=O)(=O)OC1CNP(=O)(N(CCCl)CCCl)OC1 (stereo not drawn),T/C,"T/C endpoint: mean survival time, dose: 21.9 mg/kg/injection, schedule: Q01DX001 (ip), vehicle: DMSO",107 % of control
same,T/C,"T/C endpoint: mean survival time, dose: 29.0 mg/kg/injection, schedule: Q01DX001 (ip), vehicle: DMSO",94 % of control
same,T/C,"T/C endpoint: mean survival time, dose: 43.8 mg/kg/injection, schedule: Q01DX001 (ip), vehicle: DMSO",100 % of control
same,T/C,"T/C endpoint: mean survival time, dose: 58.0 mg/kg/injection, schedule: Q01DX001 (ip), vehicle: DMSO",94 % of control
same,T/C,"T/C endpoint: mean survival time, dose: 87.5 mg/kg/injection, schedule: Q01DX001 (ip), vehicle: DMSO",107 % of control
same,T/C,"T/C endpoint: mean survival time, dose: 116.0 mg/kg/injection, schedule: Q01DX001 (ip), vehicle: DMSO",105 % of control
same,T/C,"T/C endpoint: mean survival time, dose: 175.0 mg/kg/injection, schedule: Q01DX001 (ip), vehicle: DMSO",110 % of control
same,T/C,"T/C endpoint: mean survival time, dose: 232.0 mg/kg/injection, schedule: Q01DX001 (ip), vehicle: DMSO",107 % of control
same,T/C,"T/C endpoint: mean survival time, dose: 350.0 mg/kg/injection, schedule: Q01DX001 (ip), vehicle: DMSO",119 % of control
same,T/C,"T/C endpoint: mean survival time, dose: 464.0 mg/kg/injection, schedule: Q01DX001 (ip), vehicle: DMSO",117 % of control
same,T/C,"T/C endpoint: mean survival time, dose: 700.0 mg/kg/injection, schedule: Q01DX001 (ip), vehicle: DMSO",142 % of control
same,T/C,"T/C endpoint: mean survival time, dose: 928.0 mg/kg/injection, schedule: Q01DX001 (ip), vehicle: DMSO",134 % of control
S=P(Cl)(Cl)N1CCCCCC1,T/C,"T/C endpoint: mean survival time, dose: 100.0 mg/kg/injection, schedule: Q04DX003 (ip), vehicle: saline with Tween-80",104 % of control
same,T/C,"T/C endpoint: mean survival time, dose: 200.0 mg/kg/injection, schedule: Q04DX003 (ip), vehicle: saline with Tween-80",96 % of control
same,survivor count,"T/C endpoint: mean survival time, dose: 400.0 mg/kg/injection, schedule: Q04DX003 (ip), vehicle: saline with Tween-80",0 of 6
O=P1(N(CCCl)CCCl)NCC(Br)CO1 (stereo not drawn),T/C,"T/C endpoint: mean survival time, dose: 62.5 mg/kg/injection, schedule: Q01DX001 (ip), vehicle: water",110 % of control
same,T/C,"T/C endpoint: mean survival time, dose: 125.0 mg/kg/injection, schedule: Q01DX001 (ip), vehicle: water",114 % of control
same,T/C,"T/C endpoint: mean survival time, dose: 250.0 mg/kg/injection, schedule: Q01DX001 (ip), vehicle: water",110 % of control
same,T/C,"T/C endpoint: mean survival time, dose: 500.0 mg/kg/injection, schedule: Q01DX001 (ip), vehicle: water",146 % of control
CC(C)(C)C1COP(C)(=O)OC1 (stereo not drawn),T/C,"T/C endpoint: mean survival time, dose: 3.13 mg/kg/injection, schedule: Q04DX002 (ip), vehicle: saline with Tween-80",100 % of control [survivor count not shown]
same,T/C,"T/C endpoint: mean survival time, dose: 6.25 mg/kg/injection, schedule: Q04DX002 (ip), vehicle: saline with Tween-80",103 % of control [survivor count not shown]
same,T/C,"T/C endpoint: mean survival time, dose: 12.5 mg/kg/injection, schedule: Q04DX002 (ip), vehicle: saline with Tween-80",96 % of control [survivor count not shown]
N#CN(CCCl)N=O,T/C,"T/C endpoint: median survival time, dose: 3.12 mg/kg/injection, schedule: Q01DX001 (ip), vehicle: water",101 % of control
same,T/C,"T/C endpoint: median survival time, dose: 6.25 mg/kg/injection, schedule: Q01DX001 (ip), vehicle: water",111 % of control
same,T/C,"T/C endpoint: median survival time, dose: 12.5 mg/kg/injection, schedule: Q01DX001 (ip), vehicle: water",106 % of control
same,T/C,"T/C endpoint: median survival time, dose: 25.0 mg/kg/injection, schedule: Q01DX001 (ip), vehicle: water",105 and 118 % of control
same,T/C,"T/C endpoint: median survival time, dose: 50.0 mg/kg/injection, schedule: Q01DX001 (ip), vehicle: water",116 and 134 % of control
same,T/C,"T/C endpoint: median survival time, dose: 100.0 mg/kg/injection, schedule: Q01DX001 (ip), vehicle: water",121 [5 of 6 alive] and 168 % of control
same,T/C,"T/C endpoint: median survival time, dose: 200.0 mg/kg/injection, schedule: Q01DX001 (ip), vehicle: water",128 % of control
CCCCO[P+](=O)O,T/C,"T/C endpoint: mean survival time, dose: 100.0 mg/kg/injection, schedule: Q04DX003 (ip), vehicle: saline",102 % of control
same,T/C,"T/C endpoint: mean survival time, dose: 200.0 mg/kg/injection, schedule: Q04DX003 (ip), vehicle: saline",102 % of control
same,T/C,"T/C endpoint: mean survival time, dose: 400.0 mg/kg/injection, schedule: Q04DX003 (ip), vehicle: saline",94 % of control
C[As](C)Sc1ncnc2nc[nH]c12,T/C,"T/C endpoint: mean survival time, dose: 3.13 mg/kg/injection, schedule: Q01DX005 (ip), vehicle: distilled water + Tween-80",107 % of control
same,T/C,"T/C endpoint: mean survival time, dose: 6.25 mg/kg/injection, schedule: Q01DX005 (ip), vehicle: distilled water + Tween-80",110 and 114 % of control
same,T/C,"T/C endpoint: mean survival time, dose: 12.5 mg/kg/injection, schedule: Q01DX005 (ip), vehicle: distilled water + Tween-80",107 and 114 % of control
same,T/C,"T/C endpoint: mean survival time, dose: 25.0 mg/kg/injection, schedule: Q01DX005 (ip), vehicle: distilled water + Tween-80",86 and 114 % of control
same,survivor count,"T/C endpoint: mean survival time, dose: 50.0 mg/kg/injection, schedule: Q01DX005 (ip), vehicle: distilled water + Tween-80",0 of 6 and 1 of 6
same,survivor count,"T/C endpoint: mean survival time, dose: 100.0 mg/kg/injection, schedule: Q01DX005 (ip), vehicle: distilled water + Tween-80",0 of 6
